According to patent US5362864, “Trans-activating factor-1” (The Trustees of the Rockefeller University):

Tests used:
[1] = test system: nuclear motif I factor (tobacco leaf nuclear extract) (Nicotiana tabacum); assay: competition with a labelled probe; conditions: protein in an extract
[2] = molecular target: truncated TAF-1 (p5a product from Met-22) (Nicotiana tabacum) (UniProt Q99142); assay: EMSA; conditions: protein in a lysate after overexpression
[3] = molecular target: T1, truncated TAF-1 (35S:5a partial cDNA) (Nicotiana tabacum) (UniProt Q99142); assay: activity in cells; conditions: -ABA, vector control 550, protein details: 35S promoter effector plasmid in pMON505, variant of motif I WT tetramer, only the site is given, counted as no effect
T1 sequence: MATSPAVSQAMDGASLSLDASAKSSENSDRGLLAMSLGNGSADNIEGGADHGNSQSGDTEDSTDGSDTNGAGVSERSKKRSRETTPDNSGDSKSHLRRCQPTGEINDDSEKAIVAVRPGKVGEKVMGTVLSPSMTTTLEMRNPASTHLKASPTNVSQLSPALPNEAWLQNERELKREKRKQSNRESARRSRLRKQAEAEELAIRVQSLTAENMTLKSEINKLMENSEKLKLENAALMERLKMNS

[4] = about same as truncated TAF-1, variant of motif I WT tetramer

Sequence	binding result [1, 4]	binding result ([2]; variant of motif I WT tetramer)	also measured
CAACGTGGCGCAACGTGGCGCAACGTGGCGCAACGTGGCG (double strand) [M1 tetramer]	binds	–	–
GCCACGTGGCGCCACGTGGCGCCACGTGGCGCCACGTGGC (double strand) [PA perfect palindrome (G-box) tetramer]	–	–	binding result ([1]; high-affinity binding): binds
GTACCAGGCGGTACCAGGCGGTACCAGGCGGTACCAGGCG (double strand) [M3 tetramer]	no binding	no binding	–
GTACGTCCCGGTACGTCCCGGTACGTCCCGGTACGTCCCG (double strand) [M4 tetramer]	no binding	no binding	–
GTACGTGGCGGTACGTGGCGGTACGTGGCGGTACGTGGCG (double strand) [motif I WT tetramer]	–	–	binding result ([1]; competes complex I at 300-fold molar excess, label: fill-in labelled): binds
GTACGTGGGCGTACGTGGGCGTACGTGGGCGTACGTGGGC (double strand) [M5 tetramer]	binds more weakly	–	binding result ([2]; severely reduced binding, slightly less effective competitor than WT, variant of motif I WT tetramer): binds more weakly
GTTGGTGGCGGTTGGTGGCGGTTGGTGGCGGTTGGTGGCG (double strand) [M2 tetramer]	no binding	no binding	–
TGACTGTTCTTGACTGTTCTTGACTGTTCTTGACTGTTCT (double strand) [motif I mutant tetramer (MU)]	–	–	activity on this sequence (pmol MU/mg protein/min) [3]: 515; binding result ([1]; no competition at 300-fold molar excess, variant of motif I WT tetramer): no binding; binding result ([2]; no specific complexes, variant of motif I WT tetramer): no binding
TTCGGCCACGTCACCAATCCGTTCGGCCACGTCACCAATCCGTTCGGCCACGTCACCAATCCGTTCGGCCACGTCACCAATCCG (double strand) [wheat histone H3 hex tetramer (4H1)]	–	–	binding result [2]: binds

For part of these data: Results from cells or extracts need not show a direct contact. For part of these data: No signal at the amounts used counts as a negative. For part of these data: A weaker result is weaker than the reference pair of the same experiment. For part of these data: Tags and fusion partners may be left off the protein sequences shown. For part of these data: Construct, isoform or probe ends are uncertain for at least one entry.
